PubChem BioAssay AID1259289, Sanger Institute, 2017

Test: 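Kinases that bowel cancer cells need to survive, with or without BYL719, cetuximab, trametinib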 (primary screen)
System: human LS513 colorectal cancer cells
Reagents: siRNA pool against human genes
Conditions: anchor drug BYL719 at 1 µM, cetuximab at 5 µg/ml or trametinib at 10 nM, or DMSO vehicle alone; exposure time not given
Measurement: 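Survival versus non-targeting pool for each arm averaged over replicates, robust z-score in the arm with DMSO only, and synergy scores for BYL719, cetuximab or trametinib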
Scale: robust z-score, siRNA alone (DMSO): higher = more viable cells; strongly negative means essential; viability with DMSO vs control: higher = more viable cells
Call rule: 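a gene counts as active if its DMSO-only robust z-score falls under -3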
Meaning of the calls: active = essential (knock-down alone); inactive = not essential
Shown is an unselected part of 794 reagents. In the full data, 16 (2%) were called active. 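Active marks cell loss from silencing alone; drug synergy shows only in the synergy scores, not the calls.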 Viability is capped at 1. Not all columns of the deposit are shown. Not given: the amount of reagent, the time to read-out.

target gene	robust z-score, siRNA alone (DMSO)	viability with DMSO vs control (fraction of control)	call
PAK4 (GeneID 10298)	0.561	1	inactive
CPNE3 (GeneID 8895)	0.26	0.957	inactive
AK5 (GeneID 26289)	0.561	1	inactive
DGKD (GeneID 8527)	0.561	1	inactive
PRKAG2 (GeneID 51422)	0.561	1	inactive
CLK3 (GeneID 1198)	-0.054	0.913	inactive
OBSCN (GeneID 84033)	0.561	1	inactive
ERN2 (GeneID 10595)	0.317	0.965	inactive
MKNK1 (GeneID 8569)	0.561	1	inactive
CKMT2 (GeneID 1160)	0.561	1	inactive
LRRK1 (GeneID 79705)	0.561	1	inactive
EPHB4 (GeneID 2050)	-1.25	0.743	inactive
LCK (GeneID 3932)	0.561	1	inactive
MAPK9 (GeneID 5601)	0.561	1	inactive
SGK3 (GeneID 23678)	0.201	0.949	inactive
NTRK2 (GeneID 4915)	0.561	1	inactive
PI4KA (GeneID 5297)	0.561	1	inactive
PKM (GeneID 5315)	0.561	1	inactive
PDPK1 (GeneID 5170)	-0.113	0.904	inactive
MET (GeneID 4233)	0.561	1	inactive
GUCY2F (GeneID 2986)	0.561	1	inactive
CDK2 (GeneID 1017)	0.561	1	inactive
PTPRU (GeneID 10076)	-0.563	0.84	inactive

A stretch taken from the entries so far, as a working copy:
target gene	robust z-score, siRNA alone (DMSO)	viability with DMSO vs control (fraction of control)	call
CLK3 (GeneID 1198)	-0.054	0.913	inactive
OBSCN (GeneID 84033)	0.561	1	inactive
ERN2 (GeneID 10595)	0.317	0.965	inactive
MKNK1 (GeneID 8569)	0.561	1	inactive

The listing continues:
target gene	robust z-score, siRNA alone (DMSO)	viability with DMSO vs control (fraction of control)	call
DAPK3 (GeneID 1613)	0.561	1	inactive
NEK8 (GeneID 284086)	-1.05	0.771	inactive
TBCK (GeneID 93627)	0.561	1	inactive
FLT4 (GeneID 2324)	0.181	0.946	inactive
DYRK1A (GeneID 1859)	0.561	1	inactive
ADCK2 (GeneID 90956)	-2.5	0.566	inactive
CKS2 (GeneID 1164)	0.561	1	inactive
TAOK1 (GeneID 57551)	-0.0431	0.914	inactive
MAP3K13 (GeneID 9175)	-0.473	0.853	inactive
ROS1 (GeneID 6098)	0.561	1	inactive
MAPK10 (GeneID 5602)	0.561	1	inactive
PAK6 (GeneID 56924)	0.561	1	inactive
SMG1 (GeneID 23049)	-2.2	0.608	inactive
GK2 (GeneID 2712)	-0.364	0.869	inactive
TEX14 (GeneID 56155)	0.561	1	inactive
MYO3B (GeneID 140469)	0.198	0.948	inactive
CNOT1 (GeneID 23019)	-0.274	0.881	inactive
MAP3K4 (GeneID 4216)	0.561	1	inactive
IKBKG (GeneID 8517)	-0.716	0.819	inactive
MAP3K15 (GeneID 389840)	0.561	1	inactive
CILK1 (GeneID 22858)	0.561	1	inactive
STK31 (GeneID 56164)	-0.799	0.807	inactive
NRBP2 (GeneID 340371)	-0.164	0.897	inactive
FN3KRP (GeneID 79672)	-2.43	0.575	inactive
DGKI (GeneID 9162)	0.561	1	inactive
HIPK1 (GeneID 204851)	0.129	0.939	inactive
PIP4K2B (GeneID 8396)	0.255	0.957	inactive
